In publication PMC12224964:
These are yes or no findings as the source states them, for the method shown. Binding seen in cells or lysates may run through a third protein. A yes stands for co-enrichment or nearness to the bait. Other partners may have been found.

Amino acid sequences for entries named in this document (tags omitted). Residues count along the entry.
UniProt P05161, residues 1-157: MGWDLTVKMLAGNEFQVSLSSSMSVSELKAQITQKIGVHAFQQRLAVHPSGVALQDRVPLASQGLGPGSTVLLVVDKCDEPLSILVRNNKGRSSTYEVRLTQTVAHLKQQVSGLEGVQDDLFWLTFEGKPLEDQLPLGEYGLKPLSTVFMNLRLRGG
UniProt Q8IY31: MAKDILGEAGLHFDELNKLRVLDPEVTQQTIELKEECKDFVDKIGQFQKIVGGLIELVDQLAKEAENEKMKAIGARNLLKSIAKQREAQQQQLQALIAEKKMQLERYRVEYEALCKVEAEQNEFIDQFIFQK

The molecules below were run against T1, vacuolar protein sorting 41 homolog (VPS41), endogenous (human (endogenous in HaCaT)) (UniProt P49754) (assay: affinity purification with mass spectrometry; interacting proteins of endogenous VPS41 identified by mass spectrometry; hits intersected with the proteins differentially expressed on VPS41 overexpression in HaCaT cells after 10 Gy).
T1 sequence: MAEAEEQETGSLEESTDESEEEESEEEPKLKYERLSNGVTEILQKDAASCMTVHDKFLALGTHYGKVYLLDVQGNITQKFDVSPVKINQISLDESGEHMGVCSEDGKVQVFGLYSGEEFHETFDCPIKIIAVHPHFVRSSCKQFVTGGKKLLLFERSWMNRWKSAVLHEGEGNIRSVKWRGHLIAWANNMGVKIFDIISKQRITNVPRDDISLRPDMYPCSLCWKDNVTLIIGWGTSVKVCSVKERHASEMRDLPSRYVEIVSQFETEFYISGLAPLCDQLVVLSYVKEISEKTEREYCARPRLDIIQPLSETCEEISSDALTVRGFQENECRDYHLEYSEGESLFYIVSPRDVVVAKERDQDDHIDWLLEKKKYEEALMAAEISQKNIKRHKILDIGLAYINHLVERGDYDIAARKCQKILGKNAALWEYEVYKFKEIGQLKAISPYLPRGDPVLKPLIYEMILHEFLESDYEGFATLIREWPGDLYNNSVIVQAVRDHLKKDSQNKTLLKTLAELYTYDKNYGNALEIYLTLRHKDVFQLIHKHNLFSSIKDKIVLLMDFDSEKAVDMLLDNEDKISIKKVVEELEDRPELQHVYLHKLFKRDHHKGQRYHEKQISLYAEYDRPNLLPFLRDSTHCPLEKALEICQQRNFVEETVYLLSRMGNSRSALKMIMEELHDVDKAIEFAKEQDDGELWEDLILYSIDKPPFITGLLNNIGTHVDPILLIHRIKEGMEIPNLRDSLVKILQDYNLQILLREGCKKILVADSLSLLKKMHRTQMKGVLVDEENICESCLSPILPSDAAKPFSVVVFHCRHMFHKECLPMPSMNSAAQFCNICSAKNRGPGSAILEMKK

Row | Molecule | binding
1 | ISG15 (from UniProt P05161 1-157) | binds
2 | IFT20 (from UniProt Q8IY31 1-132) | binds
3 | metastasis suppressor kangai-1 (KAI1), endogenous (protein, UniProt P27701 1-267) MGSACIKVTKYFLFLFNLIFFILGAVILGFGVWILADKSSFISVLQTSSSSLRMGAYVFIGVGAVTMLMGFLGCIGAVNEVRCLLGLYFAFLLLILIAQVTAGALFYFNMGKLKQEMGGIVTELIRDYNSSREDSLQDAWDYVQAQVKCCGWVSFYNWTDNAELMNRPEVTYPCSCEVKGEEDNSLSVRKGFCEAPGNRTQSGNHPEDWPVYQEGCMEKVQAWLQENLGIILGVGVGVAIIELLGMVLSICLCRHVHSEDYSKVPKY | binds
